Experimental data: the supplement of paper PMC7646827
Counter-ions that a name gives are not always drawn. Repeats are few or missing, and single values can be far off.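 All cells are established human bladder cancer lines, one of them grown from a patient-derived xenograft. Viability was read by a luminescent ATP assay as percent inhibition versus vehicle over a seven-point dilution series; the paper calls scores above 59 very active, 30–59 active, 21–29 semi-active, 9–20 low active and below 9 inactive.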

Experiments:
Test in all cases: drug sensitivity score DSS3 (score 0-100); higher = more sensitive; extreme values may be limits of the assay
Settings in all cases: culture: 3D, ultra-low attachment; treatment time: 5 days
[1] = test system: UM-UC-15
[2] = test system: SW780
[3] = test system: UM-UC-6
[4] = test system: UM-UC-17
[5] = test system: J82
[6] = test system: UM-UC-9
[7] = test system: TCCSUP
[8] = test system: UM-UC-3
[9] = test system: UM-UC-14
[10] = test system: SCaBER
[11] = test system: UM-UC-5
[12] = test system: UM-UC-12
[13] = test system: 5637
[14] = test system: UM-UC-18
[15] = test system: BC8149
[16] = test system: UM-UC-1
[17] = test system: T-24

Compound | drug sensitivity score DSS3 [1] | drug sensitivity score DSS3 [2] | drug sensitivity score DSS3 [3] | drug sensitivity score DSS3 [4] | drug sensitivity score DSS3 [5] | drug sensitivity score DSS3 [6] | drug sensitivity score DSS3 [7] | drug sensitivity score DSS3 [8] | drug sensitivity score DSS3 [9] | drug sensitivity score DSS3 [10] | drug sensitivity score DSS3 [11] | drug sensitivity score DSS3 [12] | drug sensitivity score DSS3 [13] | drug sensitivity score DSS3 [14] | drug sensitivity score DSS3 [15] | drug sensitivity score DSS3 [16] | drug sensitivity score DSS3 [17]
Cc1sc2c(c1C)C(c1ccc(Cl)cc1)=N[C@@H](CC(=O)OC(C)(C)C)c1nnc(C)n1-2 [(+)-JQ1] (max dose 10000 nM) | 0 | 0 | 14.7 | 13.2 | 0 | 32.6 | 18.4 | 0 | 17.5 | 0 | 10.9 | 29.5 | 5.43 | 0 |  |  | 
C=C1C[C@@H]2CC[C@@]34C[C@H]5O[C@H]6[C@@H](O3)[C@H]3O[C@H](CC[C@@H]3O[C@H]6[C@H]5O4)CC(=O)C[C@@H]3[C@@H](OC)[C@@H](C[C@H](O)CN)O[C@H]3C[C@H]3O[C@@H](CC[C@@H]1O2)C[C@@H](C)C3=C [Eribulin Mesylate] (max dose 10000 nM) | 0 | 75.2 | 56.7 | 78.4 | 0 | 15.9 | 65.3 | 47.3 | 74.3 | 0 |  | 51.8 | 61 | 0 | 21.4 | 33.8 | 
CC(C)c1onc(-c2c(Cl)cccc2Cl)c1COc1ccc(/C=C/c2cccc(C(=O)O)c2)c(Cl)c1 [GW4064] (max dose 10000 nM) | 0 | 0.488 | 0 | 1.88 | 0 | 0 | 0 |  | 0 | 0 | 0 | 0 | 3.39 | 0 | 0 | 0 | 0
Nc1ccn([C@@H]2O[C@H](CO)[C@@H](O)C2(F)F)c(=O)n1 [Gemcitabine] (max dose 10000 nM) | 2 | 33.5 | 50.3 | 35 | 30.3 | 28.4 | 76.9 | 47.2 | 66.3 | 10.2 |  | 52.9 | 63 | 46.6 | 57.8 | 74 | 
CC(C)n1nc(-c2ccc3oc(N)nc3c2)c2c(N)ncnc21 [INK 128 (MLN0128), TAK228] (max dose 10000 nM) |  | 30.9 | 46.7 | 32.2 | 0 | 41.1 | 60.1 | 41.6 | 45.2 | 48 | 51.9 | 42.4 | 41.7 | 46.4 | 61.6 | 53.1 | 
CC(C)Cn1cnc2c(N)nc3ccccc3c21 [Imiquimod] (max dose 10000 nM) | 0 | 0 | 0 | 0 | 0 | 0 | 0 |  | 0 | 0 | 0 | 0 | 0 | 0.0815 | 1.02e-05 | 0 | 0
COc1cc2ncnc(Nc3ccc(O)cc3)c2cc1OC [JANEX-1] (max dose 10000 nM) | 16.6 | 0 | 0 | 0 | 0 | 0 | 0.295 | 0.354 | 0 | 0 | 0 | 0 | 0.549 | 0 |  |  | 
COc1ccccc1Nc1nc(-c2sc(NC(C)=O)nc2C)cs1 [JNJ0966] (max dose 10000 nM) | 0 | 0 | 0 | 0 | 0 | 0 | 0 |  | 0 | 0 | 0 | 0.463 | 0 | 0 | 0 | 0 | 0
O=C(Oc1ccc([N+](=O)[O-])cc1)N1CCC(C(O)(c2ccc3c(c2)OCO3)c2ccc3c(c2)OCO3)CC1 [JZL184] (max dose 10000 nM) | 0 | 0 | 0 | 0 | 0 | 0 | 0 |  | 0 | 0 | 0 | 0 | 0 | 0 | 0 | 0 | 0
Nc1ncnc2c1ccn2[C@@H]1O[C@H]([C@H](O)c2ccccc2)[C@@H](O)[C@H]1O [LLY-283] (max dose 10000 nM) | 26.9 | 0 | 1.1 | 6.63 | 0.0732 | 8.85 | 0.823 |  | 0.578 | 0.579 | 0 | 17.4 | 3.57 | 4.25 | 7.65 | 2.03 | 1.45
CC#CCn1c(N2CCC[C@@H](N)C2)nc2c1c(=O)n(Cc1nc(C)c3ccccc3n1)c(=O)n2C [Linagliptin] (max dose 10000 nM) | 0 | 0 | 0.0309 | 0.00907 | 0 | 0 | 1.11 |  | 0 | 0 | 0 | 0 | 0 | 0 | 0.112 | 0.575 | 0.655
Nc1nc(OCc2cc(Br)cs2)c2[nH]cnc2n1 [Lomeguatrib] (max dose 10000 nM) | 0 | 0 | 0 | 0 | 0 | 0 | 0 |  | 0 | 0 | 0 | 0 | 0 | 0 | 0 | 0 | 0

Two neighbouring compounds out of the list so far, quoted:
Compound | drug sensitivity score DSS3 [1] | drug sensitivity score DSS3 [2] | drug sensitivity score DSS3 [3] | drug sensitivity score DSS3 [4] | drug sensitivity score DSS3 [5] | drug sensitivity score DSS3 [6] | drug sensitivity score DSS3 [7] | drug sensitivity score DSS3 [8] | drug sensitivity score DSS3 [9] | drug sensitivity score DSS3 [10] | drug sensitivity score DSS3 [11] | drug sensitivity score DSS3 [12] | drug sensitivity score DSS3 [13] | drug sensitivity score DSS3 [14] | drug sensitivity score DSS3 [15] | drug sensitivity score DSS3 [16] | drug sensitivity score DSS3 [17]
CC(C)n1nc(-c2ccc3oc(N)nc3c2)c2c(N)ncnc21 [INK 128 (MLN0128), TAK228] (max dose 10000 nM) |  | 30.9 | 46.7 | 32.2 | 0 | 41.1 | 60.1 | 41.6 | 45.2 | 48 | 51.9 | 42.4 | 41.7 | 46.4 | 61.6 | 53.1 | 
CC(C)Cn1cnc2c(N)nc3ccccc3c21 [Imiquimod] (max dose 10000 nM) | 0 | 0 | 0 | 0 | 0 | 0 | 0 |  | 0 | 0 | 0 | 0 | 0 | 0.0815 | 1.02e-05 | 0 | 0
